Results are given in words; binding and its absence hold for the method and conditions named. Some entries that bind do so weakly or less than the wild type. Tags and fused reporters may be left off the sequences shown.
Key:
[1] = molecular target: T1, TatC with a hexa-histidine tag on the C-terminus, co-produced with TatB (with or without TatA, TatD, TatE) (Escherichia coli) (UniProt P69423); test: co-purification by Ni(II) affinity chromatography + SEC; TatCHis-containing complexes from digitonin-solubilized membranes of strain DADE producing TatABCHisDE; Ni(II) HiTrap column, then Superose 6 in 20 mM MOPS-HCl pH 7.2, 200 mM NaCl, 0.1% digitonin; peak fraction on SDS-PAGE, Coomassie
T1 sequence: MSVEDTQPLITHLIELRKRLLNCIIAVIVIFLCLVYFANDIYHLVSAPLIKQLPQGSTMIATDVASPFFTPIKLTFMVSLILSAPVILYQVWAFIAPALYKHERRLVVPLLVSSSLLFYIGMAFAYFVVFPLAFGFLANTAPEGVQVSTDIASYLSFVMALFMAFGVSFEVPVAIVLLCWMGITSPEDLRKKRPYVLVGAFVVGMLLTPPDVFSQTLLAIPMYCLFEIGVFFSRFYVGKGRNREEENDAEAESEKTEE

[2] = molecular target: TatC with a hexa-histidine tag on the C-terminus, produced alone from pFAT588 (Escherichia coli (strain MC4100)) (UniProt P69423); test: native gel or EMSA; BN-PAGE (4-16% gradient) of TatCHis variants purified in digitonin from the ΔtatABC strain C43ΔTat(DE3); Coomassie stained; both purified
[3] = molecular target: TatC with a hexa-histidine tag on the C-terminus, produced alone from pFAT588 (Escherichia coli (strain MC4100)) (UniProt P69423); test: SEC; Superose 6 column, Ni(II) affinity-purified TatCHis from strain C43(DE3) in 20 mM MOPS-HCl pH 7.2, 200 mM NaCl, 0.1% digitonin; both purified
[4] = molecular target: TatC with a hexa-histidine tag on the C-terminus, produced alone from pFAT588 (Escherichia coli (strain MC4100)) (UniProt P69423); test: native gel or EMSA; BN-PAGE (5-18% gradient) of digitonin-solubilized whole membranes of the Tat wild-type strain C43(DE3) overproducing the TatCHis variants; anti-His tag immunoblot
[5] = molecular target: TatC with a hexa-histidine tag on the C-terminus, produced alone from pFAT588 (Escherichia coli (strain MC4100)) (UniProt P69423); test: native gel or EMSA; BN-PAGE (5-18% gradient) of digitonin-solubilized whole membranes of the ΔtatABC strain C43ΔTat(DE3) overproducing the TatCHis variants; anti-His tag immunoblot
[6] = molecular target: TatC with a hexa-histidine tag on the C-terminus, produced alone from pFAT588 (Escherichia coli (strain MC4100)) (UniProt P69423); test: cross-linking; disulfide links between TatC protomers formed during solubilization and purification; purified TatCHis on SDS-PAGE, Coomassie and immunoblot; oligomers decreased with reductant or DTT; both purified

Measured: binding

B1: TatA, untagged, co-produced with TatB and TatCHis (protein, UniProt P69428 1-89)
chain: MGGISIWQLLIIAVIVVLLFGTKKLGSIGSDLGASIKGFKKAMSDDEPKQDKTSQDADFTAKTIADKQADTNQEQAKTEDAKRHDKEQV
binds: [1]

B2: TatC with a hexa-histidine tag on the C-terminus, produced alone from pFAT588 (natural protein, Escherichia coli (strain MC4100), UniProt P69423 1-258, looked up)
chain: MVSVEDTQPLITHLIELRKRLLNCIIAVIVIFLCLVYFANDIYHLVSAPLIKQLPQGSTMIATDVASPFFTPIKLTFMVSLILSAPVILYQVWAFIAPALYKHERRLVVPLLVSSSLLFYIGMAFAYFVVFPLAFGFLANTAPEGVQVSTDIASYLSFVMALFMAFGVSFEVPVAIVLLCWMGITSPEDLRKKRPYVLVGAFVVGMLLTPPDVFSQTLLAIPMYCLFEIGVFFSRFYVGKGRNREEENDAEAESEKTEE
notes: TatC, Escherichia coli; tatC gene amplified from chromosomal DNA of strain MC4100, cloned NcoI/BglII into pQE60; protomer molecular weight printed as 28.9 kDa; also called TatCHis; source: E. coli strain C43(DE3) or its ΔtatABC derivative C43ΔTat(DE3), overproduced from pFAT588; digitonin-solubilized membranes; not shown: His6, C-terminal, kept
not listed: [1]
binds: all other assays above
